Measured values published in article PMC8486766.
No constants are given. Whether binding was seen depends on the method and setting. Binding seen in cells or lysates may run through a third protein. A yes stands for co-enrichment or nearness to the bait. Other partners may have been found.

Sequences of proteins named here, by UniProt entry; tags and fusion partners are left off.
UniProt P51608: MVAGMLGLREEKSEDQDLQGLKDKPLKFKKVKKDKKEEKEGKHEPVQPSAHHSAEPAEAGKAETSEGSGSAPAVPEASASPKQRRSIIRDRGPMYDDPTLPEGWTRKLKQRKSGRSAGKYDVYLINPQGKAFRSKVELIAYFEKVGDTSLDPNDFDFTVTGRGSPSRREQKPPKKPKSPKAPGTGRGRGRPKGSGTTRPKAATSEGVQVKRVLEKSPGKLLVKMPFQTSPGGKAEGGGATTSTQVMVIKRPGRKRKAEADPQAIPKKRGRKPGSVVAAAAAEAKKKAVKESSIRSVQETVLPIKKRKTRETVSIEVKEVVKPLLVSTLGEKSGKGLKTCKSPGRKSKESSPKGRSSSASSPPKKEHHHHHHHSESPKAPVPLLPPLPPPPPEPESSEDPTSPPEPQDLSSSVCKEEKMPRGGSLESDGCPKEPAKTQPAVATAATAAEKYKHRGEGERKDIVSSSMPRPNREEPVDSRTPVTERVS
UniProt Q92841: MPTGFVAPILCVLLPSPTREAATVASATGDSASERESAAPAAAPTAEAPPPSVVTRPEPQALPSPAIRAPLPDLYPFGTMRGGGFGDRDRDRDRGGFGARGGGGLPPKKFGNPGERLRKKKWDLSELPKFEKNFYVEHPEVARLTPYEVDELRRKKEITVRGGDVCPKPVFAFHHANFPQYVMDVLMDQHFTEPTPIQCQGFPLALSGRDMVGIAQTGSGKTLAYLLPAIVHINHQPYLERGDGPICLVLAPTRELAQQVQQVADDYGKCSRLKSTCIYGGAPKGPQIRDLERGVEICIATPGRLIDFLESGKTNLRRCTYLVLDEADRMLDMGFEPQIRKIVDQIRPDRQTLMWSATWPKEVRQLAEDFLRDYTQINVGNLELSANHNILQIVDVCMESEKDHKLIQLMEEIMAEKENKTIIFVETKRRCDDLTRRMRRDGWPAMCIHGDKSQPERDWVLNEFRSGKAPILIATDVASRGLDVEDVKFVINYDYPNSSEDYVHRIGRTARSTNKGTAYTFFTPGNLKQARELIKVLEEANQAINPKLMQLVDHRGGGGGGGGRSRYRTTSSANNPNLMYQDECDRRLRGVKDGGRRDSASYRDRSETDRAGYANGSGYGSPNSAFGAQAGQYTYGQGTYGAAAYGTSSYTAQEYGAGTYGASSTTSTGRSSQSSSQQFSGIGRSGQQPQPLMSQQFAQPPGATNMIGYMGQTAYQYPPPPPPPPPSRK

Target: FLAG-tagged full-length (FL) MeCP2 (human) (UniProt P51608)
Assay: affinity purification with mass spectrometry; anti-FLAG IP from the HMW extract (nuclease-released chromatin pellet, low salt) of HEK293T cells expressing FLAG-MeCP2; co-purifying bands of a Coomassie-stained gel identified by MS

Substance: DDX17 (from UniProt Q92841 1-729)
- binding: binds
